Data from the supplement of paper PMC11438910.
The list shows a part of the results. Most of these values are background signal.

Key:
Assay in all cases: fluorescence intensity of antibody binding to polysaccharide-coupled beads; higher = stronger binding
[1] = target: pneumococcal polysaccharide Pn18B
[2] = target: pneumococcal polysaccharide Pn18C
[3] = target: pneumococcal polysaccharide Pn18F
[4] = target: pneumococcal polysaccharide Pn19A
[5] = target: pneumococcal polysaccharide Pn19B
[6] = target: pneumococcal polysaccharide Pn19C
[7] = target: pneumococcal polysaccharide Pn19F
[8] = target: pneumococcal polysaccharide Pn2
[9] = target: pneumococcal polysaccharide Pn20A
[10] = target: pneumococcal polysaccharide Pn20B
[11] = target: pneumococcal polysaccharide Pn21
[12] = target: pneumococcal polysaccharide Pn22A
[13] = target: pneumococcal polysaccharide Pn22F
[14] = target: pneumococcal polysaccharide Pn23A
[15] = target: pneumococcal polysaccharide Pn23B
[16] = target: pneumococcal polysaccharide Pn23F
[17] = target: pneumococcal polysaccharide Pn24A
[18] = target: pneumococcal polysaccharide Pn24B
[19] = target: pneumococcal polysaccharide Pn24F
[20] = target: pneumococcal polysaccharide Pn25A
[21] = target: pneumococcal polysaccharide Pn25F
[22] = target: pneumococcal polysaccharide Pn27
[23] = target: pneumococcal polysaccharide Pn28A
[24] = antibody concentration 2.8593 ng/mL
[25] = antibody concentration 15.2894 ng/mL
[26] = antibody concentration 81.7561 ng/mL
[27] = antibody concentration 437.17 ng/mL
[28] = antibody concentration 2337.65 ng/mL
[29] = antibody concentration 12500 ng/mL
[30] = antibody concentration 0.1 ng/mL
[31] = antibody concentration 0.534724 ng/mL

B1: 4-80.2 (protein)
chain 1: QVQLQESGPGLVKPSETLSLTCAVSGDSFSSYWWSWIRQPPGKGLEWIGEINGNVGSTNYNPSLKSRVTISKDASKNQFSLKLSSVTAADTAVYYCARYKEYWGQGVLVTVSS
chain 2: DVVMTQSPLSLPITPGQPASISCRSSQSLVHSNGNTYLSWYQQKPGQPPRRLIYEVSNRDSGVPDRFSGSGAGTDFTLKISRVEAEDVGVYYCGQGTHLPYSFGQGTKVEIK
Work on B1 yielded a fluorescence intensity [1, 24] of 31 MFI, a fluorescence intensity [1, 25] of 31.5 MFI and a fluorescence intensity [1, 26] of 30 MFI. For the same binder, the fluorescence intensity [1, 27] was 30.5 MFI, the fluorescence intensity [1, 28] was 32.8 MFI and the fluorescence intensity [1, 29] was 38.5 MFI. It also gave a fluorescence intensity [2, 30] of 20 MFI, a fluorescence intensity [2, 31] of 18.5 MFI and a fluorescence intensity [2, 24] of 18.5 MFI. For the same binder, the fluorescence intensity [2, 25] was 20 MFI, the fluorescence intensity [2, 26] was 18.5 MFI and the fluorescence intensity [2, 27] was 19.2 MFI. It also gave a fluorescence intensity [2, 28] of 20 MFI, a fluorescence intensity [2, 29] of 20.5 MFI and a fluorescence intensity [3, 30] of 22 MFI. It also gave a fluorescence intensity [3, 31] of 24.5 MFI, a fluorescence intensity [3, 24] of 23.8 MFI and a fluorescence intensity [3, 25] of 22.5 MFI. For the same binder, the fluorescence intensity [3, 26] was 24 MFI, the fluorescence intensity [3, 27] was 23.2 MFI and the fluorescence intensity [3, 28] was 27 MFI. It also gave a fluorescence intensity [3, 29] of 33.5 MFI, a fluorescence intensity [4, 30] of 19 MFI and a fluorescence intensity [4, 31] of 20 MFI. It also gave a fluorescence intensity [4, 24] of 18.2 MFI, a fluorescence intensity [4, 25] of 19 MFI and a fluorescence intensity [4, 26] of 18.5 MFI. The fluorescence intensity [4, 27] was 19 MFI, the fluorescence intensity [4, 28] was 19.5 MFI and the fluorescence intensity [4, 29] was 23 MFI. It also gave a fluorescence intensity [5, 30] of 32 MFI, a fluorescence intensity [5, 31] of 28.5 MFI and a fluorescence intensity [5, 24] of 26.5 MFI. It also gave a fluorescence intensity [5, 25] of 31.8 MFI, a fluorescence intensity [5, 26] of 28.5 MFI and a fluorescence intensity [5, 27] of 26.5 MFI. For the same binder, the fluorescence intensity [5, 28] was 34.5 MFI, the fluorescence intensity [5, 29] was 70.5 MFI and the fluorescence intensity [6, 30] was 26.5 MFI. The fluorescence intensity [6, 31] was 26 MFI, the fluorescence intensity [6, 24] was 24.5 MFI and the fluorescence intensity [6, 25] was 27 MFI. The fluorescence intensity [6, 26] was 25.5 MFI, the fluorescence intensity [6, 27] was 27.2 MFI and the fluorescence intensity [6, 28] was 29 MFI. It also gave a fluorescence intensity [6, 29] of 55 MFI, a fluorescence intensity [7, 30] of 26 MFI and a fluorescence intensity [7, 31] of 28 MFI. It also gave a fluorescence intensity [7, 24] of 25.8 MFI, a fluorescence intensity [7, 25] of 28 MFI and a fluorescence intensity [7, 26] of 27.5 MFI. For the same binder, the fluorescence intensity [7, 27] was 26 MFI, the fluorescence intensity [7, 28] was 28.8 MFI and the fluorescence intensity [7, 29] was 33 MFI. For the same binder, the fluorescence intensity [8, 30] was 19 MFI, the fluorescence intensity [8, 31] was 20.5 MFI and the fluorescence intensity [8, 24] was 19 MFI. It also gave a fluorescence intensity [8, 25] of 19.5 MFI, a fluorescence intensity [8, 26] of 19.5 MFI and a fluorescence intensity [8, 27] of 21 MFI. For the same binder, the fluorescence intensity [8, 28] was 23.5 MFI, the fluorescence intensity [8, 29] was 28 MFI and the fluorescence intensity [9, 30] was 24.8 MFI. The fluorescence intensity [9, 31] was 23 MFI, the fluorescence intensity [9, 24] was 22.5 MFI and the fluorescence intensity [9, 25] was 24 MFI. For the same binder, the fluorescence intensity [9, 26] was 23.5 MFI, the fluorescence intensity [9, 27] was 21.5 MFI and the fluorescence intensity [9, 28] was 27.5 MFI. It also gave a fluorescence intensity [9, 29] of 53.5 MFI, a fluorescence intensity [10, 30] of 23.8 MFI and a fluorescence intensity [10, 31] of 24.5 MFI. For the same binder, the fluorescence intensity [10, 24] was 24.5 MFI, the fluorescence intensity [10, 25] was 25.5 MFI and the fluorescence intensity [10, 26] was 22.5 MFI. The fluorescence intensity [10, 27] was 25 MFI, the fluorescence intensity [10, 28] was 25 MFI and the fluorescence intensity [10, 29] was 30 MFI. It also gave a fluorescence intensity [11, 30] of 19.5 MFI, a fluorescence intensity [11, 31] of 20 MFI and a fluorescence intensity [11, 24] of 18.5 MFI. The fluorescence intensity [11, 25] was 19 MFI, the fluorescence intensity [11, 26] was 20 MFI and the fluorescence intensity [11, 27] was 18.5 MFI. For the same binder, the fluorescence intensity [11, 28] was 21.8 MFI, the fluorescence intensity [11, 29] was 16.2 MFI and the fluorescence intensity [12, 30] was 22 MFI. It also gave a fluorescence intensity [12, 31] of 23.5 MFI, a fluorescence intensity [12, 24] of 19 MFI and a fluorescence intensity [12, 25] of 23 MFI. For the same binder, the fluorescence intensity [12, 26] was 20.5 MFI, the fluorescence intensity [12, 27] was 22 MFI and the fluorescence intensity [12, 28] was 25 MFI. It also gave a fluorescence intensity [12, 29] of 32.8 MFI, a fluorescence intensity [13, 30] of 32.5 MFI and a fluorescence intensity [13, 31] of 32.5 MFI. It also gave a fluorescence intensity [13, 24] of 31 MFI, a fluorescence intensity [13, 25] of 33 MFI and a fluorescence intensity [13, 26] of 33.2 MFI. It also gave a fluorescence intensity [13, 27] of 30 MFI, a fluorescence intensity [13, 28] of 33.5 MFI and a fluorescence intensity [13, 29] of 36 MFI. For the same binder, the fluorescence intensity [14, 30] was 24.8 MFI, the fluorescence intensity [14, 31] was 27.5 MFI and the fluorescence intensity [14, 24] was 29 MFI. For the same binder, the fluorescence intensity [14, 25] was 25.5 MFI, the fluorescence intensity [14, 26] was 27 MFI and the fluorescence intensity [14, 27] was 27.2 MFI. The fluorescence intensity [14, 28] was 36.5 MFI, the fluorescence intensity [14, 29] was 45.5 MFI and the fluorescence intensity [15, 30] was 30 MFI. For the same binder, the fluorescence intensity [15, 31] was 30.5 MFI, the fluorescence intensity [15, 24] was 31.2 MFI and the fluorescence intensity [15, 25] was 30 MFI. The fluorescence intensity [15, 26] was 31 MFI, the fluorescence intensity [15, 27] was 34.8 MFI and the fluorescence intensity [15, 28] was 32.2 MFI. For the same binder, the fluorescence intensity [15, 29] was 35.2 MFI, the fluorescence intensity [16, 30] was 18.8 MFI and the fluorescence intensity [16, 31] was 17.5 MFI. For the same binder, the fluorescence intensity [16, 24] was 18.5 MFI, the fluorescence intensity [16, 25] was 18.5 MFI and the fluorescence intensity [16, 26] was 18.8 MFI. The fluorescence intensity [16, 27] was 17.5 MFI, the fluorescence intensity [16, 28] was 19.5 MFI and the fluorescence intensity [16, 29] was 24 MFI. For the same binder, the fluorescence intensity [17, 30] was 17.2 MFI, the fluorescence intensity [17, 31] was 15 MFI and the fluorescence intensity [17, 24] was 17 MFI. The fluorescence intensity [17, 25] was 15.5 MFI, the fluorescence intensity [17, 26] was 17.5 MFI and the fluorescence intensity [17, 27] was 14.5 MFI. It also gave a fluorescence intensity [17, 28] of 17.5 MFI, a fluorescence intensity [17, 29] of 19.2 MFI and a fluorescence intensity [18, 30] of 18.5 MFI. It also gave a fluorescence intensity [18, 31] of 17.5 MFI, a fluorescence intensity [18, 24] of 19.8 MFI and a fluorescence intensity [18, 25] of 17.2 MFI. The fluorescence intensity [18, 26] was 18 MFI, the fluorescence intensity [18, 27] was 19.8 MFI and the fluorescence intensity [18, 28] was 22 MFI. The fluorescence intensity [18, 29] was 32 MFI, the fluorescence intensity [19, 30] was 15.8 MFI and the fluorescence intensity [19, 31] was 19.8 MFI. For the same binder, the fluorescence intensity [19, 24] was 17.8 MFI, the fluorescence intensity [19, 25] was 15 MFI and the fluorescence intensity [19, 26] was 17.5 MFI. It also gave a fluorescence intensity [19, 27] of 19.8 MFI, a fluorescence intensity [19, 28] of 22.8 MFI and a fluorescence intensity [19, 29] of 30 MFI. The fluorescence intensity [20, 30] was 25 MFI, the fluorescence intensity [20, 31] was 25 MFI and the fluorescence intensity [20, 24] was 24 MFI. For the same binder, the fluorescence intensity [20, 25] was 24 MFI, the fluorescence intensity [20, 26] was 24 MFI and the fluorescence intensity [20, 27] was 24 MFI. It also gave a fluorescence intensity [20, 28] of 26 MFI, a fluorescence intensity [20, 29] of 28 MFI and a fluorescence intensity [21, 30] of 31.5 MFI. It also gave a fluorescence intensity [21, 31] of 32.2 MFI, a fluorescence intensity [21, 24] of 29.5 MFI and a fluorescence intensity [21, 25] of 31 MFI. The fluorescence intensity [21, 26] was 31 MFI, the fluorescence intensity [21, 27] was 31.5 MFI and the fluorescence intensity [21, 28] was 32 MFI. It also gave a fluorescence intensity [21, 29] of 38 MFI, a fluorescence intensity [22, 30] of 18.5 MFI and a fluorescence intensity [22, 31] of 18.5 MFI. The fluorescence intensity [22, 24] was 18 MFI, the fluorescence intensity [22, 25] was 18 MFI and the fluorescence intensity [22, 26] was 17.2 MFI. The fluorescence intensity [22, 27] was 19 MFI, the fluorescence intensity [22, 28] was 20 MFI and the fluorescence intensity [22, 29] was 43.5 MFI. The fluorescence intensity [23, 30] was 28 MFI, the fluorescence intensity [23, 31] was 27.5 MFI and the fluorescence intensity [23, 24] was 26 MFI. It also gave a fluorescence intensity [23, 25] of 26 MFI, a fluorescence intensity [23, 26] of 27.5 MFI and a fluorescence intensity [23, 27] of 28.5 MFI.
